Results published in patent US20260234130A1, “EP2 Antagonist Compounds” (Reservoir Neuroscience, Inc., priority 2022, published 2026).
pIC50: −log10 of the molar value. The match of structure and compound is tentative.

Protein sequences, listed by entry. Tags and fused reporters are not part of them.
UniProt P43116, whole entry: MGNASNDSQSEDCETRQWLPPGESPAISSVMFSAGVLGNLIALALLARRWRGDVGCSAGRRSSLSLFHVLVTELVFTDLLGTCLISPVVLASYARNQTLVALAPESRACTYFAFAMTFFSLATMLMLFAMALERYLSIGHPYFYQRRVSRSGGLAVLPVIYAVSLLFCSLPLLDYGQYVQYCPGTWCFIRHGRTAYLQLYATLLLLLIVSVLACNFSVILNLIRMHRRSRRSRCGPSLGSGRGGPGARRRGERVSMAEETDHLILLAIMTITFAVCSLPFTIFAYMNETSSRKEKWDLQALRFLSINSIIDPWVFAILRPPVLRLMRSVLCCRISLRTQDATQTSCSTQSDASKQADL

Target: EP2 receptor (Homo sapiens, UniProt P43116)
Experiment: EP2 potency assay (cAMP TR-FRET, LANCE Ultra cAMP kit) in transfected CHO-K1 cells stimulated with PGE2 at EC80
Type: cell-based
Settings: Table (V), EP2 antagonism, CHO-K1 cells expressing EP2, PGE2 at EC80
Procedure: Compound potency was measured using a cAMP TR-FRET assay. CHO-K1 cells (ATCC) were seeded at a density of 9.75×105 in 6 cm plates, and then on the following day cell media was changed to Opti-Mem I reduced serum media (Gibco), and transfected with a plasmid for expression of the EP2 receptor (the target receptor of interest), using the FuGENE 6 Transfection reagent (Promega). After 6 hours incubation, the cell media was replaced with F12 medium supplemented with 10% FBS and 100 U/ml Pen-Strep. 24 hours after transfection, cells were harvested and seeded at a density of 3000 cells/well in a 384 well plate to perform the cAMP assay, using the LANCE Ultra cAMP assay kit (PerkinElmer). For each test compound of interest, 10 nl/well of serially diluted test compound was added to each well, resulting in a range of 10 serially diluted compound concentrations from 10000 nM to 0.038 nM, with duplicate wells for each concentration. […] Levels of TR-FRET fluorescence were measured in each well using an EnVision microplate reader (excitation wavelength=337 nm and emission wavelength=615 and 665 nm). A dose-response curve was prepared by plotting percent inhibition for each compound concentration, and then IC50 was calculated by fitting a curve to the plotted values and extrapolating the IC50 concentration. […]

`CCOC(=O)c1ncc(CN2CCOc3c(Cl)cc(-n4ccc5cc(F)ccc54)cc3C2)cn1` was tested, and the pIC50 was greater than 7.00.
